Laboratory results: PubChem BioAssay AID504791 (Drosophila RNAi Screening Center, 2011)
The screen tested about 23,000 reagents; below is an unselected part of those with a known target gene and a result. Over the whole deposit, 199 (0.86%) are marked active. 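Plate-scaled ratios behind the calls are not deposited; printed light signals are raw; many rows marked increased or decreased are still called inactive.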 Unmarked entries are inactive. A plus sign joins genes that one reagent is predicted to hit.

Aim: 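Factors in Argonaute-based small RNA production and activity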 (primary screen)
Cell system: Drosophila S2-derived reporter cells
Reagent: long dsRNA against Drosophila genes, about 150-250 ng dsRNA per well (siRNA assay); about 80-120 ng (miRNA assay)
Timing: about 5 days (siRNA assay); about 4 days (miRNA assay)
Treatment: copper sulfate induction of reporters: 25 µM (siRNA assay); 200 mM stated (miRNA assay), 1-2 days before reading
Read-out: 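Per-well ratio of Renilla over firefly light, expressed relative to that plate's average ratio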
Scale: siRNA reporter hit score: higher = 3 marks a strong hit with raised ratio; -3 a strong hit with lowered ratio
Hit rule: 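a well was a first-pass pick when its plate-scaled ratio rose above 1.5 (siRNA assay) or 1.6 (miRNA assay), or dropped below 0.6; a gene counted only if two separate dsRNAs agreed on retest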

gene knocked down	dsRNA	siRNA reporter hit score	stable siRNA reporter change	miRNA reporter change	stable assay Renilla, run 1 (luminescence)	stable assay firefly, run 1 (luminescence)
CG9503	DRSC20186				5343	4.21e5
CG9503	DRSC21766				9254	5.59e5
CG14657	DRSC12219				6351	4.20e5
CG14657	DRSC12243				7930	5.71e5
CG6793	DRSC10714				4704	2.89e5
Lint-1 (l(3)mbt interacting protein 1)	DRSC19822				7058	5.59e5
Chd3	DRSC11114				6687	4.34e5
nonC (no-on-and-no-off transient C)	DRSC18366				10095	6.03e5
nonC (no-on-and-no-off transient C)	DRSC18367				6215	3.17e5
CG9717	DRSC16543				6304	3.31e5
mio (missing oocyte)	DRSC00692			reporter ratio lowered past the hit cutoff	8711	6.41e5
mio (missing oocyte)	DRSC22056				6938	4.68e5
CG7872	DRSC20062				8750	5.53e5
CG42724	DRSC12567		reporter ratio lowered past the hit cutoff (active)		7837	7.34e5
CG42724	DRSC22275				9155	5.75e5
CG4793	DRSC01966				7118	3.24e5
CG2680	DRSC18466				6886	4.30e5
7SLRNA:CR42652 + 7SLRNA:CR32864	DRSC22968				4532	3.68e5
CG10514	DRSC14249				7159	3.70e5
Scr (Sex combs reduced)	DRSC12604		reporter ratio raised past the hit cutoff		4991	1.86e5
Scr (Sex combs reduced)	DRSC23141			reporter ratio raised past the hit cutoff	5330	2.70e5
BCAS2	DRSC15693				10181	3.92e5
Cyp313a1 (Cytochrome P450 313a1)	DRSC16624				7272	3.57e5
CG6770	DRSC02992				4551	4.71e5
yki (yorkie)	DRSC04437				38064	9.15e5
CG4641 (retired record)	DRSC10439				5855	3.42e5
CG31921	DRSC00013				5560	4.17e5
wuc (Wake-up-call)	DRSC06152				5590	2.49e5
Gale (UDP-galactose 4'-epimerase)	DRSC08234				10338	4.81e5
ft (fat)	DRSC00819				10594	2.79e5
Ugt35B1 (UDP-glycosyltransferase family 35 member B1)	DRSC16893				8313	4.68e5
CG15570	DRSC18058				4428	3.08e5
Obp83cd (Odorant-binding protein 83cd)	DRSC12267				6430	3.84e5
CG32191	DRSC10522				7892	3.27e5
JIL-1 (JIL-1 kinase)	DRSC11200				5771	4.48e5
Sdb (SAXO downstream of blistered)	DRSC06272				5671	3.54e5
Sdb (SAXO downstream of blistered)	DRSC06273				5847	3.63e5
Sdb (SAXO downstream of blistered)	DRSC07155				9086	4.67e5
Gr10b (Gustatory receptor 10b)	DRSC19477				5398	6.02e5
CG17019	DRSC06642				8415	4.24e5
CG7194	DRSC10784				6806	4.09e5
Gycalpha99B (Guanylyl cyclase alpha-subunit at 99B)	DRSC16690				7627	4.54e5
eIF2Bepsilon (eukaryotic translation initiation factor 2B subunit epsilon)	DRSC18769				8418	5.98e5
Pif1A + Pif1B	DRSC14142				6212	4.38e5
Pif1A + Pif1B	DRSC14380				7490	4.39e5
Pif1A + Pif1B	DRSC14381				6307	4.06e5
CG4630	DRSC06874				8310	5.91e5
TwdlP (TweedleP)	DRSC14734				6176	5.50e5
CG15279	DRSC01935				57920	1.29e6
Antp (Antennapedia)	DRSC12490	3			5886	2.08e5
Antp (Antennapedia)	DRSC23104				2868	2.59e5
Sox21b	DRSC10025				4116	3.00e5
Sox21b	DRSC10634				5887	2.27e5
Sox21b	DRSC22788				3179	2.44e5
Sox21b	DRSC23005				5067	4.13e5
CG10064	DRSC09689				5760	3.15e5
CG5177	DRSC02824				10530	2.78e5
CG7059	DRSC16187				5806	3.22e5
mRpL19 (mitochondrial ribosomal protein L19)	DRSC16367				3712	3.51e5
mRpL19 (mitochondrial ribosomal protein L19)	DRSC21618				7829	4.46e5
CG31244	DRSC21589				8554	5.15e5
Kcmf1 (Potassium channel modulatory factor 1)	DRSC14459				9757	3.52e5
CG8419	DRSC03087				6439	3.73e5
CG8852	DRSC00719				6383	3.07e5
Hs6st (Heparan sulfate 6-O-sulfotransferase)	DRSC14348				7091	5.06e5
Hs6st (Heparan sulfate 6-O-sulfotransferase)	DRSC15182				7335	4.02e5
Hs6st (Heparan sulfate 6-O-sulfotransferase)	DRSC15581				5848	4.73e5
Hs6st (Heparan sulfate 6-O-sulfotransferase)	DRSC21732				9459	4.06e5
sens-2 (senseless-2)	DRSC02136				8019	4.11e5
sens-2 (senseless-2)	DRSC02613				8429	4.17e5
sens-2 (senseless-2)	DRSC21374				8759	3.72e5
CG8195	DRSC07103				8431	3.37e5
Ire1 (Inositol-requiring enzyme-1)	DRSC15606				8705	5.22e5
mars	DRSC06656				5144	4.01e5
CG14624	DRSC18634				5319	3.79e5
nmd (no mitochondrial derivative)	DRSC02856				26698	1.28e6
Muc4B (Mucin 4B)	DRSC18062				5011	2.85e5
Muc4B (Mucin 4B)	DRSC18063				4351	2.31e5
hoip (hoi-polloi)	DRSC03546				7006	2.56e5
DCTN2-p50 (Dynactin 2, p50 subunit)	DRSC07132				8486	4.18e5
CG7573	DRSC10884				6067	3.13e5
gdrd (goddard)	DRSC10020				7743	4.91e5
CG7458	DRSC11829				4571	3.71e5
CG7458	DRSC21340				8053	4.61e5
POLDIP2 (Polymerase (DNA-directed), delta interacting protein 2)	DRSC12194				7270	5.17e5
CG42523	DRSC00251				6111	4.33e5
CG15554	DRSC15092				6083	3.51e5
BCL7-like	DRSC17729				7543	4.52e5
Cpes (Ceramide phosphoethanolamine synthase)	DRSC04475				18133	9.48e5
Dcr-2 (Dicer-2)	DRSC06992		reporter ratio raised past the hit cutoff (active)		13630	4.28e5
Best3 (Bestrophin 3)	DRSC09880				8865	4.50e5
ATPsynO (ATP synthase, oligomycin sensitivity conferring protein)	DRSC16780				7947	5.37e5
CG18809	DRSC19818				6175	5.72e5
Dic3	DRSC06058				6675	4.56e5
p115	DRSC18813				5280	2.97e5
lky (leaky)	DRSC20682				4775	3.21e5
Ythdc1 (YTH domain containing 1)	DRSC08141				8126	5.44e5
Srx (Sulfiredoxin)	DRSC20005				4803	3.17e5
Alg11 (ALG11, alpha-1,2-mannosyltransferase)	DRSC11647				10430	5.71e5
COX7AL2 (Cytochrome c oxidase subunit 7A-like 2)	DRSC00099				4319	4.32e5
CG11699	DRSC19419				5163	5.55e5
CG15742	DRSC19708				8439	4.54e5
CG7985	DRSC14128				6835	3.00e5
lectin-30A	DRSC02560				8275	3.62e5
CG7222	DRSC07019				7639	4.06e5
CG31360	DRSC13255				3247	3.49e5
